For the experiment, the target named is FLAG-RICTOR (stably expressed in U87vIII cells) (UniProt Q6R327). The experiment in a line: affinity purification with mass spectrometry; FLAG-RICTOR captured from U87vIII lysate (2 % CHAPS, 50 mM HEPES pH 7.4, 150 mM NaCl) on anti-FLAG M2 magnetic beads, washed with ATP buffer and 300 mM NaCl buffer, eluted with 3X FLAG peptide; bands of the SDS-PAGE gel identified by LC-MS/MS.

Sequences of proteins named here, by UniProt entry; tags and fusion partners are left off.
UniProt Q6R327: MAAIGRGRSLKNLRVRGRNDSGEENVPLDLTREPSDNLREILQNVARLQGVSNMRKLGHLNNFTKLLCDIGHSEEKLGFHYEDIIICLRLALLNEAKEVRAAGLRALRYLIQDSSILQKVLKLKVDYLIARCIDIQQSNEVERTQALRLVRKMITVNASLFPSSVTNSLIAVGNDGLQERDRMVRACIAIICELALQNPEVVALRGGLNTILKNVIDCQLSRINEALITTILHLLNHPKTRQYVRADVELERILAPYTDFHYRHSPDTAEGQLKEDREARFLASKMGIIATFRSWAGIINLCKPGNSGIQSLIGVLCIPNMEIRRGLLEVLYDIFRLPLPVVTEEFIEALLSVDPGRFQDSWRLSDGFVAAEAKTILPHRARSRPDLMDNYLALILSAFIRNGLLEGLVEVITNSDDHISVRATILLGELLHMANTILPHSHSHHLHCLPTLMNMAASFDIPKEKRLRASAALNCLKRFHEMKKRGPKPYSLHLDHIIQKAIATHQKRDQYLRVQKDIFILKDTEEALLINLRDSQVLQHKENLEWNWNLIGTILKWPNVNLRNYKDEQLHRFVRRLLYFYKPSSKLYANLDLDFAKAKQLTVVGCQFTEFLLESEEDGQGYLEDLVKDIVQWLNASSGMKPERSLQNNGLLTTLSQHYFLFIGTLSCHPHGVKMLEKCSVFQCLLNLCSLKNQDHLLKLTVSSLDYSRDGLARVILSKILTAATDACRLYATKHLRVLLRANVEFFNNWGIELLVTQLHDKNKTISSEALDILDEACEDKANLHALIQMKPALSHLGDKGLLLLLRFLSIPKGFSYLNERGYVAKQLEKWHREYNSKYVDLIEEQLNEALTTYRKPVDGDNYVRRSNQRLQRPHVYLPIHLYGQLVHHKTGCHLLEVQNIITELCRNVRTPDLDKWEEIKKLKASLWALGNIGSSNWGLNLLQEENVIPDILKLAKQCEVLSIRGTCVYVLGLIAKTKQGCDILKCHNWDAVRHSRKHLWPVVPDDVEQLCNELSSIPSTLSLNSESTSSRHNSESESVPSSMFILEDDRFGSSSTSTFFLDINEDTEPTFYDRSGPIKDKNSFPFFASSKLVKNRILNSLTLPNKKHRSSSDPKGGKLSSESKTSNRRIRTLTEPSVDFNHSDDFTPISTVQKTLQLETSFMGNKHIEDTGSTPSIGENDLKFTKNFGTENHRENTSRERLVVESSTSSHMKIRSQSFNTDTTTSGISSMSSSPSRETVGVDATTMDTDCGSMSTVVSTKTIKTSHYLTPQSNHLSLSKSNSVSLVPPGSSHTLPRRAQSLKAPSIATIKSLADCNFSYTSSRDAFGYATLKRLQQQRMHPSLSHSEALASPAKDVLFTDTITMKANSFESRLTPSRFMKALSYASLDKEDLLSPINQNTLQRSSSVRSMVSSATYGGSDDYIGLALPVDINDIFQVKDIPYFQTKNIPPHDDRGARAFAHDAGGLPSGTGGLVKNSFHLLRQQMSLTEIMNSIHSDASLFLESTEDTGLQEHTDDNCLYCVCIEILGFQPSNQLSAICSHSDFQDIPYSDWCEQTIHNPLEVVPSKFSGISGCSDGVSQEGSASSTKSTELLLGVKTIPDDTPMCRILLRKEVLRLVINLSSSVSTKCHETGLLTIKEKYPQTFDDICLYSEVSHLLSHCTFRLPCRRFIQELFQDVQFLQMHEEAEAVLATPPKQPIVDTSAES
UniProt P35579: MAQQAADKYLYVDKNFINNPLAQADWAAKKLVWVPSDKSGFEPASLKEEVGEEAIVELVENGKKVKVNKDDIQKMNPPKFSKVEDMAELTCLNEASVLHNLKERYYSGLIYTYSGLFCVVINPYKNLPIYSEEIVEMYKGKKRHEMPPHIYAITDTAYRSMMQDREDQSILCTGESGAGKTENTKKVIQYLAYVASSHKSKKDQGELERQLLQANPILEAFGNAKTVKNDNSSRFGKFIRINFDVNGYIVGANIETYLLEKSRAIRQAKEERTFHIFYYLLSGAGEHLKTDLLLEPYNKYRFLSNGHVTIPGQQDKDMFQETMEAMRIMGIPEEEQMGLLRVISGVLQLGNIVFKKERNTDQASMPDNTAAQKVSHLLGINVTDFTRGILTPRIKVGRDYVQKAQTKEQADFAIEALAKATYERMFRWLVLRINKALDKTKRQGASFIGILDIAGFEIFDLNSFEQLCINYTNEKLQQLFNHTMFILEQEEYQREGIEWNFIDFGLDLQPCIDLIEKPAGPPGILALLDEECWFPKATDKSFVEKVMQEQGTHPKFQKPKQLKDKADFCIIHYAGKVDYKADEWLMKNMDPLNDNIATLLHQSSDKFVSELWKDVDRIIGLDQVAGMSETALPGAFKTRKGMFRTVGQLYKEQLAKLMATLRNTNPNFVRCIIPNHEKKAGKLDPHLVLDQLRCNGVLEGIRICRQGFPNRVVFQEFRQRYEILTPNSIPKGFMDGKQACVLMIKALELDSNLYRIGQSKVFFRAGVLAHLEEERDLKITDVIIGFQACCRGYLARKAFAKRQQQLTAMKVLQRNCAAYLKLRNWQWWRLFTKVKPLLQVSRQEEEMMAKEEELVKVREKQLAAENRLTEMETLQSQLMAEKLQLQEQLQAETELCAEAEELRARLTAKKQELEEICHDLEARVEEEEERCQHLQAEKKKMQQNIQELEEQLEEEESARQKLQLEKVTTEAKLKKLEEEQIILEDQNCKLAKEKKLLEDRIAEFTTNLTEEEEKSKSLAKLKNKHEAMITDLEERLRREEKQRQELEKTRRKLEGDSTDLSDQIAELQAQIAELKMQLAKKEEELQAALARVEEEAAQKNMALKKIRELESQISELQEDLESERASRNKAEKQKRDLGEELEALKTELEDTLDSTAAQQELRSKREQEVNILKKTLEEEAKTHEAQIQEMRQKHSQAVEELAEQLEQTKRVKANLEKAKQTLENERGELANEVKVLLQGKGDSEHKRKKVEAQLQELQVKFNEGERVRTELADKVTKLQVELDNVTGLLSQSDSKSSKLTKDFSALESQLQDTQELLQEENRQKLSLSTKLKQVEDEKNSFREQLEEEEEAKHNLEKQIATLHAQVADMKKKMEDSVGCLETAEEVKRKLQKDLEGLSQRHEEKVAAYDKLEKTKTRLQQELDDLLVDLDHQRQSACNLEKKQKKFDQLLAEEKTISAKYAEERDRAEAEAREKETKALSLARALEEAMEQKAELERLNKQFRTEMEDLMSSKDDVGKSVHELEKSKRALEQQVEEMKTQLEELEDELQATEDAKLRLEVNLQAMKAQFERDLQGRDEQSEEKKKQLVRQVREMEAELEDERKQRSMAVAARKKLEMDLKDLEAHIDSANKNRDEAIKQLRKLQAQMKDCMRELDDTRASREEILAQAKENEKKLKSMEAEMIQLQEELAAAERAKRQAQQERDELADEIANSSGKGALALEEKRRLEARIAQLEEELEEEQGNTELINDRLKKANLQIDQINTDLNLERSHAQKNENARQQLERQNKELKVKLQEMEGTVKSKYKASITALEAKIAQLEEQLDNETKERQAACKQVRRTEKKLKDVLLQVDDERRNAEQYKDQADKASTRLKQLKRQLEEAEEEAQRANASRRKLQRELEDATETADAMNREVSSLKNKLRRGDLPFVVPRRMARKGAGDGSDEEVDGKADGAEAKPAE
UniProt P21333: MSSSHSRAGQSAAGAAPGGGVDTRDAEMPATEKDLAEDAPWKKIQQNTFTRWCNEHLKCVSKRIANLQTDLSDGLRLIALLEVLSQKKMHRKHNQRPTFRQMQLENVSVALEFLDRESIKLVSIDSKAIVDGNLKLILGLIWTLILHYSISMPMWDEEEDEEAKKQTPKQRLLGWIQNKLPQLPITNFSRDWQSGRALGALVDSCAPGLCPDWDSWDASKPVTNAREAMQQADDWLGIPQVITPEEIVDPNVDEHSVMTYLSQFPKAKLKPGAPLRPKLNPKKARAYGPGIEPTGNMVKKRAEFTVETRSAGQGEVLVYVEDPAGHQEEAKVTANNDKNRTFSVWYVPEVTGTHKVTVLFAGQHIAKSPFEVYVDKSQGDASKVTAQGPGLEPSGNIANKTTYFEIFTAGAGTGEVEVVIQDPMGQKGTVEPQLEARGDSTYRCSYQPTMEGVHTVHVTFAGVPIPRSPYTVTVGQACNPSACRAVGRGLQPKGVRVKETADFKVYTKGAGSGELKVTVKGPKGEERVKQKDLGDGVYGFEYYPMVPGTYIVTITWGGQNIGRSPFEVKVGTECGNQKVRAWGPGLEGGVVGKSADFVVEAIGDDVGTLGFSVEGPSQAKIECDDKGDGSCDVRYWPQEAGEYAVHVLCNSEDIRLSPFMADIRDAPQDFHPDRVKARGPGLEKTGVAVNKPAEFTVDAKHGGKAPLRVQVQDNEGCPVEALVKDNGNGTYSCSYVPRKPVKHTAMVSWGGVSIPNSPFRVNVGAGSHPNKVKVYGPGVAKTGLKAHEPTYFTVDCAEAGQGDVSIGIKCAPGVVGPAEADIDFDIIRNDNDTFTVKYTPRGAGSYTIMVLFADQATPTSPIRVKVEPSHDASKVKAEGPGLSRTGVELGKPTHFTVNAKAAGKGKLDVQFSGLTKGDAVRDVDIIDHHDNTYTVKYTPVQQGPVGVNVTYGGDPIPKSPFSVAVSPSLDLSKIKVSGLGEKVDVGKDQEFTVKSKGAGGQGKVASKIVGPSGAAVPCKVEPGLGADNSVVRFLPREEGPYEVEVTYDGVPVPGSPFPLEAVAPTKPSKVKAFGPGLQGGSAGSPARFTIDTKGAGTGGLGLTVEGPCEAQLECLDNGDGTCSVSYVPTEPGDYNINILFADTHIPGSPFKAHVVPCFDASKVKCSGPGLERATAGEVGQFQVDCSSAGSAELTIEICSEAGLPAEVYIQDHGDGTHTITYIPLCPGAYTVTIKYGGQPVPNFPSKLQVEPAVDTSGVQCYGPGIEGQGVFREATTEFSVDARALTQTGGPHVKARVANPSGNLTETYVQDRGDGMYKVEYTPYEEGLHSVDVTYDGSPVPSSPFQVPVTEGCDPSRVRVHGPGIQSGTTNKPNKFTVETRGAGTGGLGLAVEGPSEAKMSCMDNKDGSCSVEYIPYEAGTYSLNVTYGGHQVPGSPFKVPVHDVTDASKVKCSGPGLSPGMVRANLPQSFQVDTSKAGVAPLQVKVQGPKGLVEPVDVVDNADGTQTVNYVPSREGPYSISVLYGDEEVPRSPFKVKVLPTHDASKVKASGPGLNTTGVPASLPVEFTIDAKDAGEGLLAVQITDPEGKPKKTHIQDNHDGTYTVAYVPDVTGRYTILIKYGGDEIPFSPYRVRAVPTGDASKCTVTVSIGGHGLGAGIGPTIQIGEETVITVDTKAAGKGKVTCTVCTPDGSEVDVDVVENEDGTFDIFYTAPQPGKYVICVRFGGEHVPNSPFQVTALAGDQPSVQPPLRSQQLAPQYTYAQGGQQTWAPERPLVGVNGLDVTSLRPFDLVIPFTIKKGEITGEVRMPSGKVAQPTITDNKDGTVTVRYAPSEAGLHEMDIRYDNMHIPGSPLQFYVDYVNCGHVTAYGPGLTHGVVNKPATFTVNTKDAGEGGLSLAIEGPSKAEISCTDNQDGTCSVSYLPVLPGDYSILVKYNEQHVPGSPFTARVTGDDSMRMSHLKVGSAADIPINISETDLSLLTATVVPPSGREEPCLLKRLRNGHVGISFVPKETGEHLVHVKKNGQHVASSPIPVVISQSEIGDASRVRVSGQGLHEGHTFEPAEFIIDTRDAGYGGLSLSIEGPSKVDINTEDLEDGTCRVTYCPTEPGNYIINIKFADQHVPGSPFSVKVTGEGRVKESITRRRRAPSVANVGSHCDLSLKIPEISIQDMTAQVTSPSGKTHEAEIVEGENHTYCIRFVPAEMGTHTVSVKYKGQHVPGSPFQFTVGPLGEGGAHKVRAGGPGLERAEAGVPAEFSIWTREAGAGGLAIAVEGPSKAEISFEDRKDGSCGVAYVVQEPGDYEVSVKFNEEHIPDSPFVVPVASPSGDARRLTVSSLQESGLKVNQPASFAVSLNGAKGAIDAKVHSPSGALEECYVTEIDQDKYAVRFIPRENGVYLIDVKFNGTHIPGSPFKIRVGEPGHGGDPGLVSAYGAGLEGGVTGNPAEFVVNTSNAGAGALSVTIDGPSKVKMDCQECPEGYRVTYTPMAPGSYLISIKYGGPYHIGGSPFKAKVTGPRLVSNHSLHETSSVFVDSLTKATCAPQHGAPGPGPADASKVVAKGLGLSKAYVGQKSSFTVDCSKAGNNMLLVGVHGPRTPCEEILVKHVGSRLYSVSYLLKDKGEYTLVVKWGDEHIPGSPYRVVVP

No constants are given. Whether binding was seen depends on the method and setting. In cells and extracts the contact can be indirect. These calls come from enrichment with a bait or labelling near it, and not all partners need be listed.

As for “Myosin-9 (endogenous, U87vIII cells) (from UniProt P35579 1-1960)”, the binding entry is given as “binds”.
Turning to “Filamin A (endogenous, U87vIII cells) (from UniProt P21333 1-2647)”, the binding entry was “binds”.

For the origin of these results see article PMC4489161.
